# Laboratory results published in patent US11647752B2 (priority 2020, dated 2023).
# Test system: bacteria in tobacco rhizosphere soil
smiles,measurement,value
[Na+].[SH-] [NaHS],Increase of relative abundance of bacteroidetes,45.43%
same,Increase of relative abundance of gemmatimonadetes,6.57%-96.10
same,Increase of relative abundance of verrucomicrobia,223.77%
same,Increase range of relative abundance of firmicutes versus the other treatments,220.69-558.21%
